# Primary screen of a compound library

Data taken from ChEMBL document CHEMBL3988442, “University of Dundee, Small-Polar-MMV Screening Library” (2021).

Mtb cholesterol medium: 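Whole-cell growth test on Mycobacterium tuberculosis, read after 4 days in a medium based on cholesterol and the lipid DPPC; the read-out is not stated. Concentration: 50 µM. The record gives no direction; compounds that gave an IC50 in retests scored well above the rest, so higher reads as more growth inhibition. Size under these conditions: about 69,000 compounds, about 370 of them at 50% or above in at least one test.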
Mtb glucose medium: 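Growth of Mycobacterium tuberculosis over 3 days (7H9 medium with glucose and tyloxapol); the read-out is not stated. Tested at 50 µM. Direction is inferred from retests: higher values go with more growth inhibition. Of about 69,000 compounds tested this way, about 760 (1.1%) reached 50% or more in at least one test.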

Values are the deposited “Percent Effect”, in %. How 0% and 100% were set is not recorded. Most values in the screen are low, and negative values occur. The compounds are a random part of those screened. Two or more numbers in one place are separate tests of the same structure; such repeats can differ widely.

| Compound | Mtb cholesterol medium | Mtb glucose medium |
|---|---|---|
| `CS(=O)(=O)N1CCC2(CCCN(Cc3ccccn3)C2)C1.O=C(O)C(F)(F)F.O=C(O)C(F)(F)F` (configuration not stated) | -11.39% and -17.64% | -37.7% and -5.231% |
| `COc1ccccc1CNC(C)c1cnc2cc(C)nn2c1C` (configuration not stated) | 4.52% | 9.71% and 2.015% |
| `Cn1ccnc1-c1nccn1-c1cccc(CN2CCCC2)c1` | 5.435% | 21.02% |
| `CN1CCC2(COCCN(Cc3ccc4c(c3)OCO4)C2)C1.O=C(O)C(F)(F)F.O=C(O)C(F)(F)F` (configuration not stated) | 5.201% | 8.012% and -4.883% |
| `C[C@H](N)C(=O)N1CCC(c2[nH]ncc2-c2ccccc2)CC1` | 7.529% | -7.679% |
| `CN(CC(=O)NCC(F)(F)F)Cc1nc2c(s1)CCCC2` | 6.336% | 28.5% |
| `[H][C@@]12CCN(C3CCC3)C[C@]1([H])OCCN(Cc1ccncc1)C2=O` | -26.27% | -10.28% |
| `O=C(Nc1cccnc1)NC1(c2cccc(F)c2)CC1` | -20.65% | 2.737% and 31.5% |
| `CC(=O)N(Cc1noc(C)n1)C1CCN(Cc2ccncc2Cl)C1` (configuration not stated) | -14.64% | -3.733% |
| `O=C(CC1CSc2nccc(=O)n21)NCc1ccco1` (configuration not stated) | -18.25% | -33.97% |
| `O=C(NCCC(=O)N1CCCC1)c1ccc(SCc2cccnc2)cc1` | 6.821% | -1.788% and -4.926% |
| `O=C(O)C(F)(F)F.O=C1COC2(CCN(Cc3ccc(F)cc3)CC2)CN1` | 3.263% and -13.09% | 13.91% |
| `Cc1nc(CC(=O)N2CCn3c(nnc3C(C)C)C2)cs1` | 6.802% | 13.05% |
| `Cc1ccc2c(c1)C1(CCN(S(C)(=O)=O)CC1)CN2C(=O)N(C)C` | -5.472% and -7.78% | -8.18% and -6.251% |
| `Cc1ncsc1CCN(C)C(=O)CN1CCCCCC1=O` | -9.538% | -14.04% |
| `CCCS(=O)(=O)NCC1OCCc2cn(CC3CCOCC3)nc21` (configuration not stated) | -16.08% | -33.35% |
| `CCc1ocnc1C(=O)N1CCC(C2CCN(c3ncccn3)CC2)C1` (configuration not stated) | -13.97% | 14.22% |
| `O=C(C1CCC1)N1CCn2c(COc3ncccn3)nnc2C1` | -10.96% | -10.96% |
| `CC(c1cc(F)ccc1F)N(C)CCS(=O)(=O)CCC(N)=O` (configuration not stated) | -17.17% | -24.05% |
| `Cc1nn(C)cc1CN1CCc2c(nc(-c3ccccn3)[nH]c2=O)C1` | 8.171% | 29.34% |
| `Cc1ccn(CCNc2ncnc3c2CCN(S(C)(=O)=O)CC3)n1` | -16.94% | -8.261% |
| `CC(C)NC(=O)CC1COC2(CCN(Cc3ccccc3)CC2)C1.O=C(O)C(F)(F)F` (configuration not stated) | -11.39% | -24.86% |
| `Cn1ncc2c(=O)[nH]c(N3CCCC3c3cccs3)nc21` (configuration not stated) | -18.78% | -16.3% and 4.09% |
| `COc1ccccc1OC1(C(=O)O)CCN(c2nccnc2C)CC1` | -5.961% | 8.47% |
| `CCNC(=O)[C@@H]1C[C@H](NC(=O)c2cc(CC)n[nH]2)CN1Cc1ccsc1` | 8.456% | -23.95% |
| `CCCc1nc(C)cc(N2CCNC(C(=O)NCc3cccnc3)C2)n1` (configuration not stated) | 10.39% | -10.87% |
| `O=C1Nc2ccccc2C12CCCN(Cc1ccc3c(c1)OCCO3)C2` (configuration not stated) | 14.14% | 7.363% and -14.84% |
| `Cc1nc(C)n(CC2CCCN(CCOc3ccc(C#N)cc3)C2)n1` (configuration not stated) | -5.948% | -16.48% |
| `N#CCCN(CC1CCOC1)Cn1ccc(-c2cccs2)n1` (configuration not stated) | -19.58% | 34.69% |
| `O=C(NCC(O)Cc1ccccc1)c1ccc2[nH]c(=O)[nH]c2c1` (configuration not stated) | 6.189% | -15.61% |
| `CC(C)c1cc(CSCCC(=O)O)no1` | -2.916% | 7.765% |
| `CCC(C)NC(=O)c1coc(COc2cccc(F)c2)n1` (configuration not stated) | 2.941% and 6.297% | 15.62% and 16.14% |
| `NC1CCN(C2CCN(c3ccc(-c4ccco4)cc3)CC2)CC1` | 16.28% | 22.63% and 43.41% |
| `COCCN1CCC2(COCc3c(C)nc(N(C)C)nc32)C1` (configuration not stated) | 16.51% and -0.8974% | 13.23% and -1.203% |
| `NCC(CO)Cc1ccc(OC(F)(F)F)cc1` (configuration not stated) | 8.266% | 7.255% |
| `Cc1cc(C)c(C(=O)N2CCC3(CCCNC3)C2)cc1C` (configuration not stated) | -3.067% | -31.72% |
| `Cc1ncsc1CNc1cccc(OCCN2CCCC2)c1` | -18.5% | -34.24% |
| `O=C(O)C(F)(F)F.O=C(O)C(F)(F)F.[H][C@@]12CN(Cc3cccnc3)C[C@H](C(=O)N3CCCO3)[C@]1([H])CCO2` | 12.99% | -1.178% and 29.14% |
| `COc1cc(OC)c(C2Nc3cc(Cl)ccc3C3=NCCN32)cc1OC` (configuration not stated) | -4.223% | 0.2555% |
| `CCNc1cc2c(nn1)CCN(C(=O)c1cc3cc(C)ccc3o1)C2` | 27.3% | 48.77% |
| `CCN(CC)S(=O)(=O)NC1CCCc2nc(-c3ccccc3)ncc21` (configuration not stated) | -17.35% and -3.329% | 21.11% |
| `Cc1nonc1C1CCCN1C(=O)CCc1cc2n(n1)CCCNC2` (configuration not stated) | -20.08% | -1.326% |
| `COc1ccccc1-c1cc(NC(=O)CC2CCS(=O)(=O)C2)[nH]n1` (configuration not stated) | -5.19% | -10.73% |
| `CC(C)c1ncncc1C(=O)NCCN1CCOCC1` | -6.316% | -4.624% |
| `O=C1CCC(=O)N1CCOc1nc(-c2ccccc2Cl)no1` | -6.151% | -2.473% |
| `CN1CCN(C)C(CNC(=O)N(C)Cc2ccccc2Cl)C1` (configuration not stated) | -4.608% | -1.249% and -2.48% |
| `Cc1cc(-c2cc3nc(C)c(C)c(NCC4COCCO4)n3n2)no1` (configuration not stated) | 10.44% and -7.739% | 14.16% |
| `O=C(c1cc(C2CC2)[nH]n1)N1CCCC(n2cncn2)C1` (configuration not stated) | 7.981% | 0.6851% |
| `CCc1nn(C)c(Cl)c1CN(CCOC)Cc1cnn(C)c1` | -7.558% | -7.805% |
| `O=C(Nc1cc(C(F)(F)F)c[nH]c1=O)C1CCCNC1` (configuration not stated) | 3.849% | -15.32% |
| `COc1cc(CCNC(=O)NCCC2CCCO2)ccc1C` (configuration not stated) | 1.125% and -1.508% | -3.901% |
| `O=C(NCc1csc(Cc2ccccc2)n1)C1NCCc2[nH]cnc21` (configuration not stated) | -14.85% | -0.8722% and -1.132% |
| `CSc1cccc(NC(=O)Nc2c(O)oc3ccccc3c2=O)c1` | -22.34% | -26.34% |
| `O=C(O)C(F)(F)F.O=C(O)C(F)(F)F.[H][C@@]12OCCN(Cc3ccc(C)o3)[C@@]1([H])CC[C@@H]2OCc1cccnc1` | -11.76% | -10.73% |
| `CC(O)CN1CCC(CN(C)C(=O)NC2CC2)CC1` (configuration not stated) | -13.78% | -12.96% |
| `N#Cc1cccc(S(=O)(=O)N2CCCCC2CCN2CCCC2)c1` (configuration not stated) | 24.95% | 60.69% |
| `O=C(Cn1nc(-c2ccc(F)cc2)oc1=O)NCc1ccncc1` | 11.72% | -7.303% |
| `CCC(NC(=O)C(C)(C)C)c1ccccc1C` (configuration not stated) | 4.301% | 16.44% |
| `Cc1ccc(-c2nc(CC(=O)NCC3CCCOC3)cs2)o1` (configuration not stated) | -0.3307% | -19.09% |
| `Cc1nc(CN2CCCC(N(C)Cc3nccn3C)C2)no1` (configuration not stated) | -5.571% | -3.199% |
| `O=C(CCCc1ccc(Cl)cc1)N1CCC(c2nnc[nH]2)CC1` | -20.48% | -25.85% |
| `N#Cc1c(N)nc2c(c1-c1c[nH]nc1C1CCCCC1)CNCC2` | 13.35% | 3.631% |
| `CCOCC(O)CN1CCN(C(=O)Cc2ccccc2Cl)CC1` (configuration not stated) | -0.3471% | -0.7318% |
| `CC(C)C(Nc1nc(C(F)(F)F)nc2ccccc12)C(=O)O` (configuration not stated) | -0.4762% and 10.12% | -6.417% |
| `Cc1ccc(OCCN2CCC(c3nc(C)n4c(C)csc34)CC2)cc1` | -0.3545% and 12.03% | 11.59% |
| `Cn1c(CCNc2nccnc2C#N)nc2ccc(F)cc21` | 6.829% | 1.815% |
| `O=C(NS(=O)(=O)c1cnn(-c2ccccc2F)c1)c1ccco1` | -8.85% | -8.421% and -3.585% |
| `CC(C)c1nc(CN(C)C(=O)CCS(=O)(=O)c2ccccc2)no1` | 7.937% | 9.817% |
| `c1ccc(Cc2nc(CNC3CCC4(CCNCC4)CC3)no2)cc1` | -16.71% | -2.376% |
| `Cc1nn(C)c(C)c1CC(=O)NCc1ccnc(OC2CCCC2)c1` | -23.12% and -2.233% | -1.19% and -15.72% |
| `c1ccc(N2CCC(NCc3cccc4cn[nH]c34)C2)cc1` (configuration not stated) | -7.959% | 21.81% |
| `Cn1cc(CN2CCCC23CCN(c2nc4ccccc4s2)CC3)cn1` | 5.427% | 20.22% |
| `CCc1cc(CN(C)Cc2nc(-c3sccc3C)oc2C)on1` | 16.52% and 2.058% | 10.8% |
| `CS(=O)(=O)c1ccc(C(=O)N2CCCC(n3cccn3)C2)cc1` (configuration not stated) | 1.99% | -3.995% |
| `Cc1ccc(OC2(C(=O)O)CCN(C(=O)CCc3ccco3)CC2)cn1` | -2.509% | 19.15% |
| `CC(=O)N1CC(C)CN(C(=O)c2cccnc2C)c2ccccc21` (configuration not stated) | -6.957% and -12.63% | -6.824% |
| `COC(=O)c1sccc1S(=O)(=O)N1CCC(Oc2ncccc2Cl)CC1` | -2.996% | 7.69% and 7.499% |
| `CN1CC2(CCN(C(=O)CCCOCc3ccccc3)C2)OC1=O` (configuration not stated) | 4.443% | 6.41% |
| `CCC(C)NS(=O)(=O)c1ccc(/C=C\c2onc(C)c2NC(C)=O)cc1` (configuration not stated) | 6.219% | 13.41% |
| `CCc1nccn1C1CCCN(C(=O)c2cncnc2C)C1` (configuration not stated) | -25.43% | -70.58% |
| `O=C1CC2(CCN(Cc3ccoc3)C2)CN1c1cncnc1` (configuration not stated) | 0.6354% | 7.526% |

Once more, the final 7:

- Cc1ccc(OC2(C(=O)O)CCN(C(=O)CCc3ccco3)CC2)cn1 | Mtb cholesterol medium: -2.509%; Mtb glucose medium: 19.15%
- CC(=O)N1CC(C)CN(C(=O)c2cccnc2C)c2ccccc21 (configuration not stated) | Mtb cholesterol medium: -6.957% and -12.63%; Mtb glucose medium: -6.824%
- COC(=O)c1sccc1S(=O)(=O)N1CCC(Oc2ncccc2Cl)CC1 | Mtb cholesterol medium: -2.996%; Mtb glucose medium: 7.69% and 7.499%
- CN1CC2(CCN(C(=O)CCCOCc3ccccc3)C2)OC1=O (configuration not stated) | Mtb cholesterol medium: 4.443%; Mtb glucose medium: 6.41%
- CCC(C)NS(=O)(=O)c1ccc(/C=C\c2onc(C)c2NC(C)=O)cc1 (configuration not stated) | Mtb cholesterol medium: 6.219%; Mtb glucose medium: 13.41%
- CCc1nccn1C1CCCN(C(=O)c2cncnc2C)C1 (configuration not stated) | Mtb cholesterol medium: -25.43%; Mtb glucose medium: -70.58%
- O=C1CC2(CCN(Cc3ccoc3)C2)CN1c1cncnc1 (configuration not stated) | Mtb cholesterol medium: 0.6354%; Mtb glucose medium: 7.526%